PubChem BioAssay AID1224830 | NIAID – 2016

- Assay: 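Regulators of TLR4 signalling towards TNF-alpha in macrophage-like cells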 (primary screen)
- Cells: human THP-1 monocytic leukaemia cells, TNF dual-luciferase reporter clone, PMA-differentiated to macrophage-like cells
- Reagent: siRNA pool against human genes, 50 nM
- Time to read-out: LPS for 4 h, given about 3 days after siRNA transfection
- Conditions: bacterial LPS (TLR4 ligand), 10 ng/ml
- Detection: 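Ratio of firefly to renilla light, scaled to the plate median and expressed as a robust z-score per replicate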
- Reading the numbers: TNF reporter robust z-score: higher = stronger TNF reporter response to LPS
- Rule for the call: 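Each well counts as active if its z-score is over 2.8 or under -1.5; controls are left without a call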
Here is one part, drawn at random, of about 18,000 deposited reagents. In the full data, about 2,900 (16%) got an active call. 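Calls are made per well; low scores hint the gene aids the LPS response, high scores that it dampens it.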 Repeated entries: four replicate wells of each siRNA pool.

Against SHBG the deposit lists TNF reporter robust z-score -0.6; inactive.
Knock-down of SHBG resulted in: TNF reporter robust z-score -0.14; inactive.
Depletion of SHBG gave: TNF reporter robust z-score -0.26; inactive.
Silencing of SHBG came out at: TNF reporter robust z-score -0.36; inactive.
For ZNF770, the values are TNF reporter robust z-score -1.26; inactive.
ZNF770 showed TNF reporter robust z-score -1.52; active.
Against ZNF770 the deposit lists TNF reporter robust z-score -1.43; inactive.
With knock-down of ESS2 the results were TNF reporter robust z-score -0.41; inactive.
ESS2 gave TNF reporter robust z-score -0.13; inactive.
ESS2 gave TNF reporter robust z-score -0.07; inactive.
Depletion of ESS2 resulted in: TNF reporter robust z-score 0.21; inactive.
Against OR2L3, the entry reads TNF reporter robust z-score -1.25; inactive.
For OR2L3, the values are TNF reporter robust z-score -1.11; inactive.
Knock-down of OR2L3 came out at: TNF reporter robust z-score -1.14; inactive.
Against OR2L3, the entry reads TNF reporter robust z-score -0.89; inactive.
For LINC01587, the entry reads TNF reporter robust z-score 0.84; inactive.
After knock-down of LINC01587, the record shows TNF reporter robust z-score 0.82; inactive.
With knock-down of LINC01587, the record shows TNF reporter robust z-score -0.59; inactive.
Knock-down of LINC01587 gave: TNF reporter robust z-score 0.96; inactive.
LENG8 showed TNF reporter robust z-score 1.49; inactive.
Silencing of LENG8 resulted in: TNF reporter robust z-score 0.3; inactive.
With knock-down of LENG8, the screen gave TNF reporter robust z-score 0.07; inactive.
For LENG8, the entry reads TNF reporter robust z-score 0; inactive.
With knock-down of MYLK4, the record shows TNF reporter robust z-score -1.04; inactive.
Against MYLK4, the values are TNF reporter robust z-score 0.24; inactive.
MYLK4 gave TNF reporter robust z-score 0.5; inactive.
Against MYLK4 the deposit lists TNF reporter robust z-score -0.14; inactive.
Knock-down of ACYP2 came out at: TNF reporter robust z-score 0.32; inactive.
For ACYP2, the values are TNF reporter robust z-score 1.14; inactive.
Depletion of ACYP2 came out at: TNF reporter robust z-score 0.89; inactive.
Against ACYP2, the entry reads TNF reporter robust z-score 0; inactive.
Depletion of BAZ2A resulted in: TNF reporter robust z-score -0.19; inactive.
Knock-down of BAZ2A came out at: TNF reporter robust z-score -0.32; inactive.
BAZ2A showed TNF reporter robust z-score -0.41; inactive.
Depletion of BAZ2A gave: TNF reporter robust z-score -0.28; inactive.
With knock-down of HYAL2, the screen gave TNF reporter robust z-score 1.01; inactive.
HYAL2 scored TNF reporter robust z-score 0.32; inactive.
HYAL2 gave TNF reporter robust z-score 2.67; inactive.
For HYAL2, the entry reads TNF reporter robust z-score 0.07; inactive.
ARHGAP18 scored TNF reporter robust z-score 0.7; inactive.
Against ARHGAP18, the values are TNF reporter robust z-score -1.07; inactive.
For ARHGAP18 the deposit lists TNF reporter robust z-score -1.01; inactive.
Against ARHGAP18, the values are TNF reporter robust z-score -0.11; inactive.
After knock-down of LEMD3, the screen gave TNF reporter robust z-score -0.8; inactive.
LEMD3 scored TNF reporter robust z-score -0.57; inactive.
LEMD3 showed TNF reporter robust z-score -1.21; inactive.
For LEMD3 the deposit lists TNF reporter robust z-score -0.76; inactive.
KRTAP3-3 gave TNF reporter robust z-score -0.42; inactive.
After knock-down of KRTAP3-3, the screen gave TNF reporter robust z-score -0.18; inactive.
For KRTAP3-3, the entry reads TNF reporter robust z-score -1.29; inactive.
Against KRTAP3-3, the values are TNF reporter robust z-score -0.86; inactive.
Depletion of INA came out at: TNF reporter robust z-score -0.04; inactive.
Against INA, the values are TNF reporter robust z-score -0.48; inactive.
Depletion of INA came out at: TNF reporter robust z-score 0.31; inactive.
INA scored TNF reporter robust z-score -0.39; inactive.
Depletion of CCDC136 came out at: TNF reporter robust z-score 1.23; inactive.
CCDC136 scored TNF reporter robust z-score 3.1; active.
Knock-down of CCDC136 came out at: TNF reporter robust z-score 2.64; inactive.
Against CCDC136, the values are TNF reporter robust z-score 2.68; inactive.
After knock-down of NPAT the results were TNF reporter robust z-score 2.77; inactive.
NPAT showed TNF reporter robust z-score 2.36; inactive.
Silencing of NPAT came out at: TNF reporter robust z-score -0.07; inactive.
NPAT gave TNF reporter robust z-score -0.34; inactive.
